Data as given in PubChem BioAssay AID652272 (Drosophila RNAi Screening Center, 2013).

Test: 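Genes whose knock-down decreases or increases Hedgehog reporter output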 (primary screen)
Cells: Drosophila clone 8 (Cl8) cells
Reagents: long dsRNA against Drosophila genes
Measured: 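Plate reader light from a firefly reporter under a ptc promoter fragment that responds to Hedgehog, with Renilla light as transfection reference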
Reading the numbers: firefly Hh reporter signal: higher = more ptc reporter light; Renilla reference signal: higher = more Renilla control light
Hit rule: 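Called a hit if the two-replicate mean z-score lies below -2 or above +3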
Calls: active = hit: reporter lowered or raised; inactive = not a hit
The deposit covers about 21,000 reagents; below is an unselected part of those with a known target gene and a result. Of all reagents, 503 (2.4%) got an active call. 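Raw plate light values, not normalised; calls rest on replicate z-scores that were not deposited; hits include reporter decreases as well as increases.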 Entries without a mark were called inactive. Not given: the amount of reagent, the time to read-out.

gene,DRSC id,"firefly Hh reporter signal, replicate 1","firefly Hh reporter signal, replicate 2","firefly Hh reporter signal, replicate 3","Renilla reference signal, replicate 1","Renilla reference signal, replicate 2"
Dnai2,DRSC10575,37308,48240,64568,4842,4256
l(3)mbt,DRSC16983,86823,70713,,2199,2061
CG17105,DRSC02574,95141,40662,,2041,3610
BckdhA,DRSC16395,74704,1.14e5,,2601,2885
csul,DRSC07599,68217,42615,,1078,2985
Cap-D2,DRSC15401,79157,90963,,2192,2994
nub,DRSC01260,6.15e5,3.55e5,,27842,13176
nub,DRSC02498,1.16e5,51173,,3466,5328
nub,DRSC02499,1.90e5,82995,,4765,7558
nub,DRSC03583,86181,42728,,2504,4288
Arr2,DRSC09670,50757,54912,,2861,3111
Mnr,DRSC20549,64536,1.63e5,,2026,7081
Mnr,DRSC20550,7.64e5,1.18e5,3.85e5,5850,3408
CG15923,DRSC15129,94665,54996,,4563,2434

Entries above whose gene name starts with N or n (4):
gene,DRSC id,"firefly Hh reporter signal, replicate 1","firefly Hh reporter signal, replicate 2","firefly Hh reporter signal, replicate 3","Renilla reference signal, replicate 1","Renilla reference signal, replicate 2"
nub,DRSC01260,6.15e5,3.55e5,,27842,13176
nub,DRSC02498,1.16e5,51173,,3466,5328
nub,DRSC02499,1.90e5,82995,,4765,7558
nub,DRSC03583,86181,42728,,2504,4288

The list goes on.
gene,DRSC id,"firefly Hh reporter signal, replicate 1","firefly Hh reporter signal, replicate 2","firefly Hh reporter signal, replicate 3","Renilla reference signal, replicate 1","Renilla reference signal, replicate 2"
Sp1,DRSC17622,4.26e5,1.43e5,,25821,3928
Sp1,DRSC18717,60155,1.32e5,,1522,5467
CG34159,DRSC02885,57335,27032,,1379,2008
tra,DRSC11405,1.25e5,,,3672,3461
Muc4B,DRSC18062,49101,1.66e5,,2082,8530
Muc4B,DRSC18063,94672,2.73e5,,3565,11234
CG4570,DRSC15602,38813,68249,,1068,2185
CheB42c,DRSC04972,1.03e5,67320,,2572,5312
CG11550,DRSC14326,77237,2.30e5,,2984,8986
